Binding data for 2 molecules are collected here from patent US20200270125A1.

No constants are given. Whether binding was seen depends on the method and setting. Binding calls can cover weak binding; strength is not graded here.

Assay [1] has as its target recombinant dog MASP-3 (dog). Briefly: cross-species binding experiments.
Assay [2] concerns the target recombinant dog MASP-3 (dog). The assay can be described thus: cross-species binding, ranking of Fab binding.

B1: 4D5 Parental Fab (Fab, V domains shown)
VH: QVQLKQSGPELVKPGASVKLSCKASGYTFTTDDINWVKQRPGQGLEWIGWIYPRDDRTKYNDKFKDKATLTVDTSSNTAYMDLHSLTSEDSAVYFCSSLEDTYWGQGTLVAVSS
VL: DIVMTQSPSSLAVSAGEKVTMTCKSSQSLLNSRTRKNYLAWYQQKPGQSPKLLIYWASTRESGVPDRFTGSGSGTDFSLTISSVQAEDLAVYYCKQSYNLYTFGGGTKLEIKR
As to B1, the binding entry in assay [1] and in assay [2] was “binds” throughout.

B2: 13B1 Parental Fab (Fab, V domains shown)
VH: QVQLKQSGAELMKPGASVKLSCKATGYTFTGKWIEWVKQRPGHGLEWIGEILPGTGSTNYNEKFKGKATFTADSSSNTAYMQLSSLTTEDSAMYYCLRSEDVWGTGTTVTVSS
VL: DIVMTQSPSSLAVSAGEKVTMSCKSSQSLLNSRTRKNYLAWYQQKPGQSPKLLIYWASTRESGVPDRFTGSGSGTDFTLTISSVQAEDLAVYYCKQSYNIPTFGGGTKLEIKR
For the molecule B2, the binding result in assay [1] and in assay [2] was “binds” in each case.
